These are yes or no findings as the source states them, for the method shown. Binding seen in cells or lysates may run through a third protein. Some binding calls cover weakened binding; strength is not graded here.
Molecular target: FLAG-tagged Bcl-2 (human) (UniProt P10415)
Experiment: co-IP; HEK 293T cells transfected with FLAG-tagged Bcl-2 and Myc-tagged PAK1-CA or PAK1-DN; lysates immunoprecipitated with anti-FLAG antibody, Western blot with anti-Myc antibody

Protein sequences, listed by entry. Tags and fused reporters are not part of them. Lines headed by an entry give the natural chain unless they say otherwise; changes in a name come on top. Chains listed by the source or under a name are the forms on record and can include a tag or linker.
UniProt P10415: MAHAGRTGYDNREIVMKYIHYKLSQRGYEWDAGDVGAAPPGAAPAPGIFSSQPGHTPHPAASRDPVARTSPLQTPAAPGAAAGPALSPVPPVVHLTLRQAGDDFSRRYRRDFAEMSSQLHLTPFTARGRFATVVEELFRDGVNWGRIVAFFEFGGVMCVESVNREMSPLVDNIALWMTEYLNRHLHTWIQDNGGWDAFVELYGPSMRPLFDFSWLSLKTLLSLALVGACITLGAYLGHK
UniProt Q13153: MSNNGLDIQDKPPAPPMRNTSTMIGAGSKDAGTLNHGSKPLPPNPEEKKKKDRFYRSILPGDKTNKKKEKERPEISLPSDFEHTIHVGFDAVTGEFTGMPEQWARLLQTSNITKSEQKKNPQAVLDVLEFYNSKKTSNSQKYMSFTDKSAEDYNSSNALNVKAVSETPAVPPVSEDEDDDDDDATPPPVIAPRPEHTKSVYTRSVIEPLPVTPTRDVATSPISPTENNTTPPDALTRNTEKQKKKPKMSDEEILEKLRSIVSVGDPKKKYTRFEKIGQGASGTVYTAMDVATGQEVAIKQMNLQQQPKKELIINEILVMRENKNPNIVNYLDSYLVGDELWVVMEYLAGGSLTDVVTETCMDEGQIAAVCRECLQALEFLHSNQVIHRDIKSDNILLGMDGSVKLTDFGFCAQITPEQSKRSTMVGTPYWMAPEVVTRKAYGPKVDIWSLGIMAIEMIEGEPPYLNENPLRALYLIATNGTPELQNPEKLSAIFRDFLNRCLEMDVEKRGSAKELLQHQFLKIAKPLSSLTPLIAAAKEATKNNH
Myc-tagged PAK1-DN (PAK1 H83,86L, K299R, dominant-negative) (Q13153, form named): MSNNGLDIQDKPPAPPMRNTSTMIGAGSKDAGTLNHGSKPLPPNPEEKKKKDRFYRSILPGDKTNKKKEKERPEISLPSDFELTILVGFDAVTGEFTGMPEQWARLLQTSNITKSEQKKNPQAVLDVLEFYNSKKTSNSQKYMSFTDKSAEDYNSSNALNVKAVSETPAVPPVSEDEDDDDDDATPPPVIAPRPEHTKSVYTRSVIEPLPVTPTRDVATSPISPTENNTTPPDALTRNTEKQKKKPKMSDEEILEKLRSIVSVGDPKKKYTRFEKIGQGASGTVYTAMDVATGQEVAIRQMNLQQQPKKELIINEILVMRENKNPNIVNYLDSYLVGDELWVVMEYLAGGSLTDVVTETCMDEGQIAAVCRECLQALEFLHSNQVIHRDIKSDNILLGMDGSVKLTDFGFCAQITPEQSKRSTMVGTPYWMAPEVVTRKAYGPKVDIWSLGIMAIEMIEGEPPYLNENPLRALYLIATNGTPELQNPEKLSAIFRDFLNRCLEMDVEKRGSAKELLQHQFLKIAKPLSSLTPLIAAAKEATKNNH

binding	Substance
binds	Myc-tagged PAK1-CA (PAK1 T423E, constitutively active) (from UniProt Q13153 1-545) (enzyme)
binds	Myc-tagged PAK1-DN (PAK1 H83,86L, K299R, dominant-negative) (from UniProt Q13153 1-545) (enzyme)

Source: publication PMC4848805
